Results: the supplement of paper PMC6078165
The reference is the same well before dosing, and untreated signal decays as well.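 Fibroblast labels denote human fibroblasts, mainly primary ones from uterus (C12385, HUF), lung (H6013), bone (Hs27A), adrenal (HADF) and skin (WS1), plus mammary HMF and breast cancer-associated Hs343T. Cancer cells are basal-like or mesenchymal-like triple-negative breast cancer lines. A hit is a response shift exceeding 3x replicate standard deviation. The tissue of the other fibroblasts is not given here.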

Tested on: MDAMB231
Assay: relative JC-1 red fluorescence (viability) vs pre-drug, coculture with fibroblast (fraction); higher = more viable cancer cells
Method: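 JC-1 labelled TNBC cells cocultured 1:1 (1,500 cells each) with CellTrace Violet stained primary or stromal fibroblasts in 384-well plates in FluoroBrite medium, treated with one of 42 anticancer drugs at 0.1, 1, 10 or 100 uM. JC-1 red fluorescence (mitochondrial integrity in cancer cells only) was read by plate reader every 8 h for 72 h. Values are normalised to each well's pre-drug value. The stock of one drug was tenfold lower, so its dose labels may be too high.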

CO[C@H]1C[C@@H]2CC[C@@H](C)[C@@](O)(O2)C(=O)C(=O)N2CCCC[C@H]2C(=O)O[C@H]([C@H](C)C[C@@H]2CC[C@@H](O)[C@H](OC)C2)CC(=O)[C@H](C)/C=C(\C)[C@@H](O)[C@@H](OC)C(=O)[C@H](C)C[C@H](C)/C=C/C=C/C=C/1C [Rapamycin]
relative JC-1 red fluorescence
Settings	8 h	16 h	24 h	32 h	40 h	48 h	56 h	64 h	72 h
0.1 µM, coculture fibroblast: C12385	0.7926	0.742	0.674	0.664	0.619	0.594	0.557	0.559	0.543
0.1 µM, coculture fibroblast: H6013	0.8925	0.8386	0.7989	0.789	0.763	0.731	0.729	0.719	0.679
0.1 µM, coculture fibroblast: H6019	0.756	0.706	0.649	0.643	0.594	0.574	0.536	0.54	0.516
0.1 µM, coculture fibroblast: H6076	0.897	0.823	0.773	0.747	0.719	0.692	0.674	0.661	0.654
0.1 µM, coculture fibroblast: H6231	0.93505	0.842	0.775	0.724	0.686	0.654	0.616	0.601	0.575
0.1 µM, coculture fibroblast: HADF	0.87	0.838	0.801	0.765	0.731	0.681	0.676	0.665	0.627
0.1 µM, coculture fibroblast: HCFa	0.8816	0.833	0.78	0.747	0.7	0.651	0.64	0.617	0.585
0.1 µM, coculture fibroblast: HCPF	0.9105	0.8082	0.762	0.729	0.687	0.646	0.6124	0.587	0.572
0.1 µM, coculture fibroblast: HHSteC	0.904	0.861	0.817	0.771	0.739	0.7078	0.684	0.661	0.629
0.1 µM, coculture fibroblast: HMF	0.9112	0.831	0.757	0.708	0.665	0.625	0.597	0.575	0.561
0.1 µM, coculture fibroblast: HPFa	0.9588	0.901	0.8333	0.793	0.771	0.7246	0.6853	0.674	0.643
0.1 µM, coculture fibroblast: HUF	0.853	0.73	0.778	0.651	0.599	0.581	0.535	0.543	0.52
0.1 µM, coculture fibroblast: Hs5	0.886	0.832	0.792	0.755	0.716	0.674	0.642	0.622	0.603
0.1 µM, coculture fibroblast: Hs27A	0.875	0.821	0.778	0.76	0.717	0.639	0.667	0.656	0.621
0.1 µM, coculture fibroblast: Hs343T	0.861	0.776	0.735	0.688	0.643	0.6	0.5644	0.551	0.536
0.1 µM, coculture fibroblast: WS1	0.75	0.693	0.641	0.605	0.562	0.55	0.519	0.519	0.499
1 µM, coculture fibroblast: C12385	0.76	0.7731	0.7	0.727	0.689	0.67	0.642	0.64	0.637
1 µM, coculture fibroblast: H6013	0.906	0.887	0.858	0.856	0.828	0.786	0.796	0.778	0.747
1 µM, coculture fibroblast: H6019	0.7662	0.748	0.745	0.733	0.697	0.7	0.665	0.671	0.655
1 µM, coculture fibroblast: H6076	0.881	0.852	0.8235	0.813	0.7914	0.7587	0.7407	0.7368	0.7438
1 µM, coculture fibroblast: H6231	0.938	0.888	0.843	0.801	0.764	0.735	0.701	0.689	0.666
1 µM, coculture fibroblast: HADF	0.9097	0.89	0.8588	0.8391	0.83	0.781	0.7933	0.791	0.746
1 µM, coculture fibroblast: HCFa	0.901	0.8856	0.864	0.854	0.824	0.777	0.758	0.74	0.706
1 µM, coculture fibroblast: HCPF	0.907	0.888	0.877	0.815	0.726	0.769	0.74	0.66	0.667
1 µM, coculture fibroblast: HHSteC	0.9189	0.8981	0.8556	0.8277	0.795	0.7682	0.7432	0.727	0.704
1 µM, coculture fibroblast: HMF	0.884	0.84687	0.814	0.7872	0.7618	0.742	0.7139	0.701	0.7033
1 µM, coculture fibroblast: HPFa	0.9342	0.931	0.889	0.852	0.844	0.805	0.769	0.758	0.727
1 µM, coculture fibroblast: HUF	0.8357	0.7786	0.776	0.715	0.667	0.6609	0.6246	0.622	0.603
1 µM, coculture fibroblast: Hs5	0.954	0.926	0.88	0.846	0.806	0.763	0.731	0.708	0.699
1 µM, coculture fibroblast: Hs27A	0.901	0.8851	0.8412	0.837	0.797	0.717	0.75	0.745	0.704
1 µM, coculture fibroblast: Hs343T	0.938	0.881	0.822	0.784	0.732	0.698	0.665	0.658	0.645
1 µM, coculture fibroblast: WS1	0.753	0.746	0.679	0.696	0.667	0.649	0.617	0.618	0.604
10 µM, coculture fibroblast: C12385	0.681	0.753	0.635	0.775	0.763	0.771	0.739	0.74	0.726
10 µM, coculture fibroblast: H6013	0.86	0.808	0.813	0.7804	0.762	0.739	0.835	0.776	0.778
10 µM, coculture fibroblast: H6019	0.694	0.664	0.541	0.574	0.561	0.5722	0.582	0.618	0.618
10 µM, coculture fibroblast: H6076	0.825	0.98	0.9623	0.962	0.944	0.943	0.955	0.968	0.976
10 µM, coculture fibroblast: H6231	0.94	0.9395	0.953	0.95	0.935	0.947	0.93	0.939	0.926
10 µM, coculture fibroblast: HADF	0.9059	0.891	0.907	0.939	0.938	0.903	0.921	0.921	0.904
10 µM, coculture fibroblast: HCFa	0.902	0.857	0.854	0.852	0.8026	0.758	0.74716	0.723	0.691
10 µM, coculture fibroblast: HCPF	0.856	0.911	0.941	0.833	0.853	0.881	0.9016	0.83	0.841
10 µM, coculture fibroblast: HHSteC	0.8818	0.8656	0.8636	0.8609	0.843	0.829	0.799	0.796	0.761
10 µM, coculture fibroblast: HMF	0.954	0.927	0.9289	0.9173	0.912	0.884	0.887	0.877	0.864
10 µM, coculture fibroblast: HPFa	0.909	0.929	0.912	0.907	0.912	0.897	0.873	0.87	0.833
10 µM, coculture fibroblast: HUF	0.7421	0.737	0.806	0.782	0.777	0.773	0.743	0.76	0.747
10 µM, coculture fibroblast: Hs5	0.9921	0.971	0.971	0.961	0.947	0.909	0.877	0.87	0.852
10 µM, coculture fibroblast: Hs27A	0.8568	0.853	0.862	0.877	0.842	0.763	0.811	0.809	0.783
10 µM, coculture fibroblast: Hs343T	0.9724	0.932	0.9131	0.898	0.8608	0.8397	0.815	0.8099	0.81089
10 µM, coculture fibroblast: WS1	0.6916	0.723	0.67	0.745	0.752	0.741	0.724	0.731	0.709
100 µM, coculture fibroblast: C12385	0.64452	0.689	0.497	0.543	0.47	0.34	0.274	0.2536	0.269
100 µM, coculture fibroblast: H6013	0.8333	0.671	0.556	0.509	0.392	0.343	0.338	0.362	0.363
100 µM, coculture fibroblast: H6019	0.793	0.771	0.641	0.692	0.644	0.557	0.449	0.338	0.282
100 µM, coculture fibroblast: H6076	0.8363	0.662	0.586	0.514	0.442	0.351	0.305	0.308	0.331
100 µM, coculture fibroblast: H6231	0.86	0.901	0.844	0.857	0.891	0.761	0.701	0.707	0.708
100 µM, coculture fibroblast: HADF	0.8423	0.704	0.544	0.484	0.362	0.28	0.265	0.294	0.299
100 µM, coculture fibroblast: HCFa	0.859	0.732	0.638	0.602	0.495	0.368	0.324	0.334	0.338
100 µM, coculture fibroblast: HCPF	0.969	0.779	0.8115	0.866	0.742	0.778	0.754	0.661	0.642
100 µM, coculture fibroblast: HHSteC	0.879	0.776	0.654	0.603	0.482	0.379	0.326	0.339	0.352
100 µM, coculture fibroblast: HMF	0.9609	0.869	0.772	0.697	0.629	0.527	0.472	0.458	0.473
100 µM, coculture fibroblast: HPFa	0.908	0.799	0.656	0.587	0.4885	0.387	0.321	0.321	0.326
100 µM, coculture fibroblast: HUF	0.788	0.779	0.809	0.765	0.613	0.53	0.48	0.54	0.553
100 µM, coculture fibroblast: Hs5	0.925	0.691	0.59	0.518	0.472	0.396	0.357	0.35	0.376
100 µM, coculture fibroblast: Hs27A	0.832	0.759	0.728	0.683	0.582	0.464	0.395	0.432	0.426
100 µM, coculture fibroblast: Hs343T	0.919	0.819	0.719	0.629	0.544	0.452	0.39	0.372	0.35526
100 µM, coculture fibroblast: WS1	0.745	0.721	0.51	0.509	0.446	0.332	0.265	0.26	0.284
